PubChem BioAssay AID652243 | Drosophila RNAi Screening Center, 2013
The deposit covers about 24,000 reagents; shown is a random part of those with a known target gene and a result. Over the whole deposit, 246 (1%) got an active call. 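Plates not normalised; calls are printed but the firefly/Renilla ratio behind them is not deposited; fold cut for lowering reported inconsistently.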 The raw values are shown without normalisation. Entries without a mark were called inactive. A plus sign joins genes that one reagent is predicted to hit. No sequences are given here. Not stated in the record: the amount of reagent.

Assay: 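Fly genes required for human androgen receptor driven transcription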 (primary screen)
Cells: Drosophila S2R+ cells
Knock-down reagent: long dsRNA against Drosophila genes
Time to read-out: 72 h (48 h, then 24 h hormone)
Conditions: synthetic androgen R1881 at 10 nM for 24 h
Measured: 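Firefly light from an androgen-responsive reporter and Renilla control light per well, raw and unnormalised, for each of two replicates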
Direction: firefly reporter light: higher = more light from androgen-responsive reporter; Renilla control light: higher = more constitutive control signal (cell number, transfection)
Active means: 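Hit when the log firefly-to-Renilla ratio dropped or increased by a fixed fold versus the mean of GFP or LacZ controls across duplicate plates; lowering cut given as 1.5 and as 3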
Meaning of the calls: active = hit: reporter lowered or raised; inactive = no hit

predicted target | DRSC id | firefly reporter light, replicate 1 | firefly reporter light, replicate 2 | Renilla control light, replicate 1 | Renilla control light, replicate 2
dany | DRSC04141 | 2.94e5 | 4.44e5 | 1.73e6 | 1.67e6
CG31999 | DRSC17131 | 2.74e5 | 3.74e5 | 2.44e6 | 1.83e6
CG31999 | DRSC17133 | 2.69e5 | 2.22e5 | 5.11e6 | 3.20e6
Isha | DRSC04456 | 8.68e5 | 5.98e5 | 2.35e6 | 1.96e6
CG3744 | DRSC15511 | 1.16e5 | 1.32e5 | 2.02e6 | 1.78e6
CG3744 | DRSC29964 | 4.42e5 | 3.52e5 | 1.16e6 | 9.67e5
CG3117 | DRSC38930 | 9.75e5 | 9.35e5 | 2.47e6 | 2.06e6
Ccdc58 | DRSC10218 | 42327 | 79936 | 4.73e5 | 3.79e5
ppk16 | DRSC02736 | 4.61e5 | 5.18e5 | 1.38e6 | 1.21e6
obst-G | DRSC11103 | 1.21e5 | 71816 | 1.30e6 | 4.74e5
CG10332 (retired record) + IM18 | DRSC04064 | 4.02e5 | 4.22e5 | 2.59e6 | 1.46e6
CG3594 | DRSC04393 | 5.41e5 | 6.00e5 | 8.46e5 | 1.37e6
CG3594 | DRSC21959 | 4.25e5 | 4.43e5 | 1.25e6 | 9.74e5
CG14505 | DRSC06476 | 1.17e5 | 89781 | 2.13e6 | 2.13e6
CadN | DRSC03286 | 2.32e5 | 2.15e5 | 2.88e6 | 3.52e6
CadN | DRSC27368 | 3.45e5 | 3.08e5 | 5.92e5 | 6.84e5
CG13053 | DRSC09934 | 2.12e5 | 2.53e5 | 2.71e6 | 1.98e6
CG42446 + CG17931 | DRSC28824 | 2.15e5 | 2.90e5 | 8.58e5 | 9.19e5
z | DRSC23134 | 7.93e5 | 9.90e5 | 1.10e6 | 1.22e6
Cpr67B | DRSC10373 | 8.31e5 | 4.40e5 | 1.12e6 | 8.98e5
Pop1 | DRSC17739 | 93441 | 1.21e5 | 5.67e5 | 6.51e5
ChLD3 | DRSC02640 | 2.67e5 | 2.03e5 | 2.12e6 | 1.65e6
CG12116 | DRSC17812 | 2.51e5 | 3.69e5 | 2.93e6 | 2.89e6
Rpn7 | DRSC16841 | 45751 | 45345 | 3.72e5 | 2.97e5
Rpn7 | DRSC25951 | 4.42e5 | 4.42e5 | 5.84e5 | 5.50e5
tHMG1 | DRSC16181 | 3.51e5 | 4.59e5 | 3.18e6 | 3.43e6
magu | DRSC06832 | 7.77e5 | 5.53e5 | 1.45e6 | 1.12e6
CG4891 | DRSC01936 | 8.46e5 | 9.45e5 | 1.64e6 | 1.89e6
CG4891 | DRSC24341 | 6.49e5 | 6.37e5 | 7.45e5 | 8.64e5
CG13566 | DRSC04203 | 2.35e5 | 3.06e5 | 1.53e6 | 1.46e6
CG13566 | DRSC25377 | 9.08e5 | 7.90e5 | 1.24e6 | 1.37e6
CG4259 | DRSC00645 | 1.23e5 | 64247 | 4.11e5 | 2.94e5
CG4259 | DRSC29614 | 1.04e6 | 8.73e5 | 1.17e6 | 1.17e6
CG42342 | DRSC13165 | 1.37e5 | 1.42e5 | 2.87e5 | 2.66e5
CG42342 | DRSC15010 | 1.97e5 | 2.67e5 | 3.05e6 | 3.21e6
CG42342 | DRSC15011 | 2.17e5 | 2.64e5 | 3.08e6 | 3.08e6
CG42342 | DRSC15012 | 1.71e5 | 1.83e5 | 2.91e6 | 2.62e6
CG42342 | DRSC21791 | 4.30e5 | 5.30e5 | 6.91e5 | 6.60e5
CG42342 | DRSC22861 | 1.40e5 | 1.97e5 | 4.07e5 | 4.08e5
CG42342 | DRSC23112 | 5.38e5 | 5.06e5 | 6.26e5 | 6.58e5
CG42342 | DRSC24200 | 7.83e5 | 7.86e5 | 9.85e5 | 9.69e5
CG42342 | DRSC25912 | 4.13e5 | 4.41e5 | 1.28e6 | 8.81e5
CG42342 | DRSC28157 | 4.26e5 | 5.33e5 | 1.69e6 | 1.33e6
Atg12 | DRSC09803 | 3.37e5 | 2.71e5 | 3.57e6 | 2.89e6
pdm3 | DRSC06076 | 4.71e5 | 4.60e5 | 2.67e6 | 2.46e6
pdm3 | DRSC23181 | 9.36e5 | 1.09e6 | 2.16e6 | 2.01e6
pdm3 | DRSC27184 | 4.24e5 | 4.37e5 | 7.60e5 | 8.14e5
pdm3 | DRSC29989 | 3.98e5 | 4.87e5 | 1.01e6 | 9.49e5
msk | DRSC11340 | 6.51e5 | 6.33e5 | 1.49e6 | 2.02e6
msk | DRSC23929 | 3.81e5 | 3.62e5 | 4.95e5 | 4.97e5
CG9316 | DRSC03195 | 65061 | 1.00e5 | 9.30e5 | 1.21e6
RpS2 | DRSC03614 | 8.06e5 | 5.10e5 | 1.46e6 | 1.09e6
RpS2 | DRSC26760 | 1.88e5 | 2.20e5 | 7.04e5 | 5.59e5
Rpn10 | DRSC11876 | 2.22e5 | 1.99e5 | 1.41e6 | 1.33e6
JhI-26 | DRSC06851 | 1.08e6 | 1.39e6 | 2.14e6 | 2.54e6
JhI-26 | DRSC27424 | 3.31e5 | 3.42e5 | 7.83e5 | 8.25e5
Cds + Setx | DRSC27090 | 6.19e5 | 5.87e5 | 8.84e5 | 4.63e5
Nach | DRSC07478 | 76603 | 1.10e5 | 1.01e6 | 1.01e6
CG10646 | DRSC09764 | 4.41e5 | 4.87e5 | 3.02e6 | 3.50e6
CG31344 | DRSC16069 | 2.14e5 | 2.60e5 | 3.00e6 | 3.32e6
CG31344 | DRSC29593 | 3.70e5 | 4.54e5 | 8.21e5 | 8.21e5
Hao + Pex6 | DRSC06097 | 1.02e6 | 5.09e5 | 9.82e5 | 7.08e5
Hao + Pex6 | DRSC06704 | 2.76e5 | 2.03e5 | 1.36e6 | 1.05e6
CG42233 | DRSC14328 | 2.80e5 | 3.18e5 | 2.05e6 | 3.51e6
CG42233 | DRSC15416 | 1.91e5 | 2.28e5 | 2.01e6 | 2.06e6
CG42233 | DRSC24948 | 9.28e5 | 9.11e5 | 7.02e5 | 8.88e5
CG42233 | DRSC26880 | 3.25e5 | 4.81e5 | 4.52e5 | 5.68e5
Lpin | DRSC07241 | 7.61e5 | 7.17e5 | 1.68e6 | 1.70e6
Cdk8 | DRSC11113 | 3.88e5 | 5.48e5 | 1.05e6 | 1.35e6
Cdk8 | DRSC28684 | 2.59e5 (active) | 2.07e5 | 1.89e6 | 1.54e6
CG32812 | DRSC18478 | 2.10e5 | 2.37e5 | 2.52e6 | 2.22e6
Ag5r | DRSC19327 | 1.10e5 | 1.09e5 | 8.80e5 | 8.52e5
Ag5r | DRSC29999 | 4.10e5 | 3.45e5 | 1.16e6 | 9.43e5
pygo | DRSC14322 | 91903 | 73656 | 3.91e5 | 2.53e5
pygo | DRSC25137 | 4.42e5 | 5.14e5 | 5.15e5 | 6.07e5

Sorted by “Renilla control light, replicate 1” (high to low): some entries from above
predicted target | DRSC id | firefly reporter light, replicate 1 | firefly reporter light, replicate 2 | Renilla control light, replicate 1 | Renilla control light, replicate 2
CG32812 | DRSC18478 | 2.10e5 | 2.37e5 | 2.52e6 | 2.22e6
Cdk8 | DRSC28684 | 2.59e5 (active) | 2.07e5 | 1.89e6 | 1.54e6
Cdk8 | DRSC11113 | 3.88e5 | 5.48e5 | 1.05e6 | 1.35e6
Ag5r | DRSC19327 | 1.10e5 | 1.09e5 | 8.80e5 | 8.52e5
